Data on one substance can be found in paper PMC8266800.

The assay has as its target T1, GST-Annexin A6 (UniProt P08133).
T1 sequence: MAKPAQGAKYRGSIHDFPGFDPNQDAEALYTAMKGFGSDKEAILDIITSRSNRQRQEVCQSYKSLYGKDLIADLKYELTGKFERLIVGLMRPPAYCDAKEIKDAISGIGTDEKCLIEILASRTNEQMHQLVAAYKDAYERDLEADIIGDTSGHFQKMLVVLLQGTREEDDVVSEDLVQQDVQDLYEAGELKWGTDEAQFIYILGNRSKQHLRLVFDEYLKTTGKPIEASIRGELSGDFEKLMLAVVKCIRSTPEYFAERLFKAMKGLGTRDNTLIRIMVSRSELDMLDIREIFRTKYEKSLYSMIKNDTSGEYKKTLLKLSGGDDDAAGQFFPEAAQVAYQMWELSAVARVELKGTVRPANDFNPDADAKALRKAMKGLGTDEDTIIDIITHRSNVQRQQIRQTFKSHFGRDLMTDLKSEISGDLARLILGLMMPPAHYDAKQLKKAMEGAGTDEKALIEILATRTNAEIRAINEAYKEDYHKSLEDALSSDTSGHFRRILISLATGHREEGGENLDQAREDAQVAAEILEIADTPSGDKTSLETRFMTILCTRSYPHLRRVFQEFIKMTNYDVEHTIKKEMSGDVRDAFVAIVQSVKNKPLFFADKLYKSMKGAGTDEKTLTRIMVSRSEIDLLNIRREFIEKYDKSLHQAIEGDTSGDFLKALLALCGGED
Briefly: pull-down; GST-Annexin A6 on glutathione resin incubated with lysate of HA-EGFR-transfected HEK293T cells (2 h, 4 °C; 50 mM Tris-HCl pH 7.5, 150 mM NaCl, 1.5 mM MgCl2, 1 mM EDTA, 1% Triton X-100, 10% glycerol); washed three times; western blot; only the target purified.

No constants are given. Whether binding was seen depends on the method and setting. In cells and extracts the contact can be indirect. Binding calls can cover weak binding; strength is not graded here. Tags and fused reporters may be left off the sequences shown.

For the substance “HA-EGFR (from UniProt P00533) (receptor)”, the binding result is recorded as “binds”.
